In publication PMC7340582:
These are yes or no findings as the source states them, for the method shown. In cells and extracts the contact can be indirect. Here binding means that the protein was enriched with, or labelled near, the bait; the list need not be complete.

Target: NDC80–GFP (Plasmodium berghei)
Assay: affinity purification with mass spectrometry; GFP-Trap_A beads on formaldehyde-crosslinked (1%, 10 min) lysates of NDC80–GFP or GFP-only schizonts (8 h in culture) and gametocytes (1 min post-activation); on-bead trypsin digest, LC-MS/MS

- binding: binds
B1: PBANKA_1442300, candidate SPC24 orthologue (protein, UniProt A0A509B0W6 1-819)
chain: MNYFSGKPKTKATELNNENKGVKFLNRAKNNFNGINKNTTNTQFSSFGQKNTLIRNTNFKLRTNNNTFKPPPRGIIKSSQNALHKNAQIDSNKQSHNELRNGSKNVSLANTRSIENNSNNNTTKPYLNRPIIHTNIKKYVSDDNNVMKNTNKNNIKNNRNSRFYNSENNEMNNNKDDNINNSESILYTYTSPIKRKYEAVNNTNQNTENDNNKMNTLNKKYAQRNYYFDNNLPTYYNNKVNNENSNSNNINENANNYNNFYSNEKLFNNNNTLDVSYITFKTGSNIDAANEVNINNNANNSIKSHSLARNYDKQKNGDNILNNSNCEPNYKYYYLEQNGQHNLDIHINKNLYTNDNPKNGNCNNLPYHLNSNILRSKEIRESKYLADTHSEKMMNSTNNNDVFNTCTIDRLSEENFNSYVKRKSHNKNTFSGINNLDDITRNHMTDNNNNNNRNESNNSKNFHNLNMDNEDNQLKNITNNQDTSLKNSIIGSNIVDFKNISMVIPISEGNLLSHKSENGSVKNRRSSSHNNMNANSVHTFQDDASYFNKYRDMNNMQQYIKKNDNRNKKIMNRYNIDTYINNDNDYLYFRNIINNITKYNSGESDIDDLCKTVMNINDYSLNFDGENEGINEIIDITNNVNNNIINIQQAIYNKKKIVQDKRNVINEEYEIISQKLKDCESIFCDTNDETGEKKLKVFYEIDEKKNILKNKYQVKKMLLKKAQYKIDKLQEYTDAIKLKTMAISKKYKRTYLLIEELFRLKIIKDNENELEICLIPKNTETNMWHRLQLDKKEITPEACDYLWSQIESFVDKETFDNYF
